According to publication PMC4019850:
No constants are given. Whether binding was seen depends on the method and setting. In cells and extracts the contact can be indirect. For part of these data: Binding calls can cover weak binding; strength is not graded here. Where a sequence is shown, tags or fusion partners need not be part of it.

Columns and labels:
[1] = target: GST fusion of the N-terminal SH3 domain of GRB2; test: pull-down; 50 μg GST fusion of a GRB2 domain incubated with lysate (RIPA buffer) of HeLa transfected with Flag-PTPN21, in presence or absence of Y527F SRC; glutathione-Sepharose 4B, 4°C; blot with anti-Flag; only the target purified
[2] = target: GST fusion of the C-terminal SH3 domain of GRB2; test: as above
[3] = target: GST fusion of SCRIB PDZ 1-2 (human); test: pull-down; GST fusions of SCRIB PDZ domains used to affinity purify extracts of E. coli cells expressing HIS-tagged DUSP26; only the target purified

| Binder | binding [1] | binding [2] | binding [3] |
| --- | --- | --- | --- |
| Flag-PTPN21 (enzyme, UniProt Q16825 1-1174) MPLPFGLKLKRTRRYTVSSKSCLVARIQLLNNEFVEFTLSVESTGQESLEAVAQRLELREVTYFSLWYYNKQNQRRWVDLEKPLKKQLDKYALEPTVYFGVVFYVPSVSQLQQEITRYQYYLQLKKDILEGSIPCTLEQAIQLAGLAVQADFGDFDQYESQDFLQKFALFPVGWLQDEKVLEEATQKVALLHQKYRGLTAPDAEMLYMQEVERMDGYGEESYPAKDSQGSDISIGACLEGIFVKHKNGRHPVVFRWHDIANMSHNKSFFALELANKEETIQFQTEDMETAKYIWRLCVARHKFYRLNQCNLQTQTVTVNPIRRRSSSRMSLPKPQPYVMPPPPQLHYNGHYTEPYASSQDNLFVPNQNGYYCHSQTSLDRAQIDLNGRIRNGSVYSAHSTNSLNNPQPYLQPSPMSSNPSITGSDVMRPDYLPSHRHSAVIPPSYRPTPDYETVMKQLNRGLVHAERQSHSLRNLNIGSSYAYSRPAALVYSQPEIREHAQLPSPAAAHCPFSLSYSFHSPSPYPYPAERRPVVGAVSVPELTNAQLQAQDYPSPNIMRTQVYRPPPPYPPPRPANSTPDLSRHLYISSSNPDLITRRVHHSVQTFQEDSLPVAHSLQEVSEPLTAARHAQLHKRNSIEVAGLSHGLEGLRLKERTLSASAAEVAPRAVSVGSQPSVFTERTQREGPEEAEGLRYGHKKSLSDATMLIHSSEEEEDEDFEEESGARAPPARAREPRPGLAQDPPGCPRVLLAGPLHILEPKAHVPDAEKRMMDSSPVRTTAEAQRPWRDGLLMPSMSESDLTTSGRYRARRDSLKKRPVSDLLSGKKNIVEGLPPLGGMKKTRVDAKKIGPLKLAALNGLSLSRVPLPDEGKEVATRATNDERCKILEQRLEQGMVFTEYERILKKRLVDGECSTARLPENAERNRFQDVLPYDDVRVELVPTKENNTGYINASHIKVSVSGIEWDYIATQGPLQNTCQDFWQMVWEQGIAIIAMVTAEEEGGREKSFRYWPRLGSRHNTVTYGRFKITTRFRTDSGCYATTGLKMKHLLTGQERTVWHLQYTDWPEHGCPEDLKGFLSYLEEIQSVRRHTNSTSDPQSPNPPLLVHCSAGVGRTGVVILSEIMIACLEHNEVLDIPRVLDMLRQQRMMLVQTLCQYTFVYRVLIQFLKSSRLI | binds | binds | – |
| HIS-tagged DUSP26 (enzyme, UniProt Q9BV47 1-211) MCPGNWLWASMTFMARFSRSSSRSPVRTRGTLEEMPTVQHPFLNVFELERLLYTGKTACNHADEVWPGLYLGDQDMANNRRELRRLGITHVLNASHSRWRGTPEAYEGLGIRYLGVEAHDSPAFDMSIHFQTAADFIHRALSQPGGKILVHCAVGVSRSATLVLAYLMLYHHLTLVEAIKKVKDHRGIIPNRGFLRQLLALDRRLRQGLEA | – | – | no binding |
